The text below walks through data of paper PMC10974264.

Sequences of proteins named here, by UniProt entry; tags and fusion partners are left off. Residues count along the entry.
UniProt P12643, 283-396: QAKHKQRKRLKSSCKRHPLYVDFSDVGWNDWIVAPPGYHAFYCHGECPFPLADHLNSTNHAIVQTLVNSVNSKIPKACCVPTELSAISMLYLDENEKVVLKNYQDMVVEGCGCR
UniProt P02769, 25-607: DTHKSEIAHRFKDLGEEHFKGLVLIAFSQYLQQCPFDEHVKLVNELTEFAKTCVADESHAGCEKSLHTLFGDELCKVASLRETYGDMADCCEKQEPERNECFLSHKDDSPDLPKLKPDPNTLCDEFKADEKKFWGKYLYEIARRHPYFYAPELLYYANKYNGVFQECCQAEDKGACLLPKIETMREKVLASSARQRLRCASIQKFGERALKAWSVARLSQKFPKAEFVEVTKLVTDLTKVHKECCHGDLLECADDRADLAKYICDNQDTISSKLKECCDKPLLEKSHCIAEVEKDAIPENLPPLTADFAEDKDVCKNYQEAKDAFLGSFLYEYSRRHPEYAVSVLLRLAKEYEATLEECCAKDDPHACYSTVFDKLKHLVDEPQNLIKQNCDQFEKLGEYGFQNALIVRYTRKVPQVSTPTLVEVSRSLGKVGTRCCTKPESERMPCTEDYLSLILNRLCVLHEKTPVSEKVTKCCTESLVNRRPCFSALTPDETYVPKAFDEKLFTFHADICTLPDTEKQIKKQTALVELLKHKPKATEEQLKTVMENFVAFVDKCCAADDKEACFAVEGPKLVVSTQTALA

In data set [1] the target is rhBMP-2 (His-tagged, refolded, E. coli-expressed) (human) (UniProt P12643). The experiment in a line: EMSA. To be noted: EMSA: 20 mM HEPES pH 7.4, 150 mM NaCl, 2 mM MgCl2, 2 mM CaCl2, 2 mM KCl, 37 C 1 h, 12% native PAGE at 4 C, recombinant protein, protein details: His tag (pET-15b NdeI/BamHI), single-stranded DNA. Background: A gel shift assay detects complexes by their altered migration in electrophoresis.

Data set [2] shares this target. The experiment in a line: ssDNA Qubit assay. To be noted: high-salt binding buffer; recombinant protein; protein details: His tag (pET-15b NdeI/BamHI); label: biotin (ELONA), none in EMSA; single-stranded DNA.
The target of the next data set is T1, BMP-3 (rhBMP-3) (UniProt P12645).
T1 sequence (looked up, limits assumed): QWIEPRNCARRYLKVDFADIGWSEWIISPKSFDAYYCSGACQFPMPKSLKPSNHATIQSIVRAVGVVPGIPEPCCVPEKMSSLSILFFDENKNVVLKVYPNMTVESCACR
The experiment in a line: EMSA; ELONA. To be noted: weak non-specific binding; EMSA: 20 mM HEPES pH 7.4, 150 mM NaCl, 2 mM MgCl2, 2 mM CaCl2, 2 mM KCl, 37 C 1 h, 12% native PAGE at 4 C; label: biotin (ELONA), none in EMSA; single-stranded DNA.

The next data set concerns the target BSA (UniProt P02769). The data set is described as follows: EMSA; ELONA. As to conditions: weak non-specific binding; EMSA: 20 mM HEPES pH 7.4, 150 mM NaCl, 2 mM MgCl2, 2 mM CaCl2, 2 mM KCl, 37 C 1 h, 12% native PAGE at 4 C; label: biotin (ELONA), none in EMSA; single-stranded DNA.
In data set [3] the target is rhBMP-2 (His-tagged, refolded, E. coli-expressed) (human) (UniProt P12643). The data set is described as follows: competition with a labelled probe. As to conditions: EMSA: 20 mM HEPES pH 7.4, 150 mM NaCl, 2 mM MgCl2, 2 mM CaCl2, 2 mM KCl, 37 C 1 h, 12% native PAGE at 4 C, recombinant protein, protein details: His tag (pET-15b NdeI/BamHI), label: biotin (ELONA), none in EMSA, single-stranded DNA.

For some assays here: Negatives hold for the conditions tested. Weaker means in comparison with the reference protein, sequence or condition of that experiment. For some assays here: Protein sequences can lack the tags named with them. For some assays here: The exact form of at least one protein or probe is not confirmed. For some assays here: At least one verdict was read from the data and is not stated in words by the source.

For the sequence “CGTACGGTCGACGCTAGCAAAAACAAAAAGGAAAAACCAAAAAAACATAAAAACACGTGGAGCTCGGATCC [BA5 (used as scramble control)]”, in data set [1] (1 uM BMP-2, 25 nM DNA, BA1 much stronger and stated more specific than scramble), the binding result is given as “binds more weakly”.
In the case of “CGTACGGTCGACGCTAGCAAAACAAAAAAAAATAAAAAAAAAAAGACTAAAGACACGTGGAGCTCGGATCC [BA1]”, the binding result in data set [2] is reported as “binds more weakly”; with BMP-3 (rhBMP-3), “binds more weakly”; in the data set with BSA, “binds more weakly”; in data set [1] (unbound band decreases with rhBMP-2 0-5 uM, complex band not seen, label: biotin (ELONA), none in EMSA), “binds”; in data set [3] (BA1 pre-bound, slowly replaced by heparin), “binds more weakly”; in data set [3] (heparin pre-bound: fully inhibited BA1 binding), “no binding”. Also, the binding result in data set [3] (polyphosphate (polyP65) competitor, results consistent with heparin) is “binds more weakly”.
